Among the data in publication PMC11186357 are binding values, retold here.

Amino acid sequences for entries named in this document (tags omitted). Residues count along the entry.
UniProt O75581, residues 20-1613: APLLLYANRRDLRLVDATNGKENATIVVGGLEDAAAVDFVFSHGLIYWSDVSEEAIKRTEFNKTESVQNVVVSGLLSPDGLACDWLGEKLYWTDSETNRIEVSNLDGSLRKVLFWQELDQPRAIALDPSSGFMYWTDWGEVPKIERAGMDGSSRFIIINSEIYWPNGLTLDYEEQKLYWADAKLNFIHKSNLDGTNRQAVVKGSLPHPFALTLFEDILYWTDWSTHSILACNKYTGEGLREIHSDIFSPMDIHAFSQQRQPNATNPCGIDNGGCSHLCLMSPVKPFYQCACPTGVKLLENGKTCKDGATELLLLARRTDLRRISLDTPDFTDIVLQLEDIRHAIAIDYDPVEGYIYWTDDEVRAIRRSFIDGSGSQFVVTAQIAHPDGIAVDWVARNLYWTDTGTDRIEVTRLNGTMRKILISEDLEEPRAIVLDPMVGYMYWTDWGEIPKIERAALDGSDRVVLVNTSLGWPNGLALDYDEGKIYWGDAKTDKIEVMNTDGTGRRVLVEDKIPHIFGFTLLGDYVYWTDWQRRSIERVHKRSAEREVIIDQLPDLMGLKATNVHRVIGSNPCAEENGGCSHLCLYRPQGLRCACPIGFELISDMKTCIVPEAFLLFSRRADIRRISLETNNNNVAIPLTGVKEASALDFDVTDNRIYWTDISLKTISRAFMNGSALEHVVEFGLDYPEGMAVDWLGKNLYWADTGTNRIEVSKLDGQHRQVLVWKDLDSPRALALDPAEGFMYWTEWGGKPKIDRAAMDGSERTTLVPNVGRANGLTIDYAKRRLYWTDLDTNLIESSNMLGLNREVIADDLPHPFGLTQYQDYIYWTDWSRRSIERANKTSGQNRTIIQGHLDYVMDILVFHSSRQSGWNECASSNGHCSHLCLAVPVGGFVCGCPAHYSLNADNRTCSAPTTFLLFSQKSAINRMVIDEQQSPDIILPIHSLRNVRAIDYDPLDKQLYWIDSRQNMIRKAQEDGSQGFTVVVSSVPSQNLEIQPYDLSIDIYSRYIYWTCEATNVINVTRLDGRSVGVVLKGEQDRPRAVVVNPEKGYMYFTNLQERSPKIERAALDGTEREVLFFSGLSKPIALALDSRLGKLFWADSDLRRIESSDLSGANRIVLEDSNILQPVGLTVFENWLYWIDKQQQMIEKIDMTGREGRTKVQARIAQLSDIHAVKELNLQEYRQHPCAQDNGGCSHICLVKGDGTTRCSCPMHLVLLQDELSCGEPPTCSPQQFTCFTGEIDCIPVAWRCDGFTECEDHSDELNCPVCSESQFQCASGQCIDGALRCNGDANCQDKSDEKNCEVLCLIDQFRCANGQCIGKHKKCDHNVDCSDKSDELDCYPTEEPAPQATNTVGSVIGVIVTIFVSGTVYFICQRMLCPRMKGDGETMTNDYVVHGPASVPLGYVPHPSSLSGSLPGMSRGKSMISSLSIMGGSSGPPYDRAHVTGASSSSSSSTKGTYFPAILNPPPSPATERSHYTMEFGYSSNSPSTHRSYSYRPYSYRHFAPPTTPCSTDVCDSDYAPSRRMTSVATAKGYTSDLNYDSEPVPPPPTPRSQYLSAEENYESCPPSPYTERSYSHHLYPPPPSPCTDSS
UniProt Q07065: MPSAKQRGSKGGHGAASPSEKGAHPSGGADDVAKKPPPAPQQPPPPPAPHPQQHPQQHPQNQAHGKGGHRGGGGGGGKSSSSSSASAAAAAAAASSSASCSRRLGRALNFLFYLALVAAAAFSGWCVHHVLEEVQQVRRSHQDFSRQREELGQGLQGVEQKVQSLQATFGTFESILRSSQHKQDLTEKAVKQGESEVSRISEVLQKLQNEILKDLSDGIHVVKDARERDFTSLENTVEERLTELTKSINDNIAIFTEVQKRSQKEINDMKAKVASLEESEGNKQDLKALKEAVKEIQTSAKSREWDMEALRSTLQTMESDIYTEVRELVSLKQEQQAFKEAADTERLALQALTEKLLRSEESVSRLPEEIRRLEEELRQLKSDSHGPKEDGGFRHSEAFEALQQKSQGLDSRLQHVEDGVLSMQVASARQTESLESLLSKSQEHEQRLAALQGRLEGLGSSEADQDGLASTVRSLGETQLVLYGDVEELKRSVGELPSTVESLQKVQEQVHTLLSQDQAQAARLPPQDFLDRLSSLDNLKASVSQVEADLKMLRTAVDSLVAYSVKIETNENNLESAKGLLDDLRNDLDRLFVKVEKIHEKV

No constants are given. Whether binding was seen depends on the method and setting. In cells and extracts the contact can be indirect. Some results given as binding are weak or reduced against the parent protein; the word gives no strength. For part of these data: Sequences can lack the tags named with a protein.

Experiment [1] deals with Low density lipoprotein receptor related protein 6 (human (endogenous in HASMCs)) (UniProt O75581). Nature of the experiment: co-IP; endogenous proteins in SMCs under stimulation with rDKK1.
The target of experiment [2] is T1, scavenger receptor-A (human (endogenous in HASMCs)) (UniProt P21757).
T1 sequence: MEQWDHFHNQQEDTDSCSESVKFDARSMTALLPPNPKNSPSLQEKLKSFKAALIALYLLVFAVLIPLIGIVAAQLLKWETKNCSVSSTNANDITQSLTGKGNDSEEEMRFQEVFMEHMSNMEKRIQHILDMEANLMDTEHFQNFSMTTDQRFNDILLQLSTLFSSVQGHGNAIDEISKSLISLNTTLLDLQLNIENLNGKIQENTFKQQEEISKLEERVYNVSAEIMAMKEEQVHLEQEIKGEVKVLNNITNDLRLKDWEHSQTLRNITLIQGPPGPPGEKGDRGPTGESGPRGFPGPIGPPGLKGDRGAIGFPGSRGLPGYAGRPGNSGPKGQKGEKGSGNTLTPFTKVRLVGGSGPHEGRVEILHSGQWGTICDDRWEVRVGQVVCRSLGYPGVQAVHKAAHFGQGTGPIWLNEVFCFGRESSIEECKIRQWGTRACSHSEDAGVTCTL
Nature of the experiment: co-IP; endogenous proteins in HASMCs; also after rDKK1 incubation or co-culture with Lenti-GFP-DKK1 HAECs (interaction said to be enhanced).

For the next experiment, the target named is T2, Myc-tagged SR-A (UniProt P21757).
T2 sequence: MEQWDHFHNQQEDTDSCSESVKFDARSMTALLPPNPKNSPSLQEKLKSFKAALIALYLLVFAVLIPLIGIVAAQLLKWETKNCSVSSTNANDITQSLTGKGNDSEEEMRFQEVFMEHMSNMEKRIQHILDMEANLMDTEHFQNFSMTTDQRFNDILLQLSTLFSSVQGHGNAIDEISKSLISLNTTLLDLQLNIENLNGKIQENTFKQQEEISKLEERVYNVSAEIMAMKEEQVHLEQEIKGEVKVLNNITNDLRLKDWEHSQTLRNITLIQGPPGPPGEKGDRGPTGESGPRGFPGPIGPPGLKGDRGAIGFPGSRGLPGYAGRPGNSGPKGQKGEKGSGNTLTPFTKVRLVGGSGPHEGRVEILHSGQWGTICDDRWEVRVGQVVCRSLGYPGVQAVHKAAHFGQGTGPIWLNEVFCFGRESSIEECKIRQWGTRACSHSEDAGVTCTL
The experiment can be described thus: co-IP; HEK293T cells co-transfected with Myc-tagged SR-A and Flag-tagged USP53 plasmids.

“Cytoskeleton associated protein 4 (from UniProt Q07065 1-602) (receptor)”: the binding result in experiment [1] is “binds”.

B1: Ubiquitin-specific Protease 53 (enzyme, UniProt Q70EK8 1-1073)
chain: MAWVKFLRKPGGNLGKVYQPGSMLSLAPTKGLLNEPGQNSCFLNSAVQVLWQLDIFRRSLRVLTGHVCQGDACIFCALKTIFAQFQHSREKALPSDNIRHALAESFKDEQRFQLGLMDDAAECFENMLERIHFHIVPSRDADMCTSKSCITHQKFAMTLYEQCVCRSCGASSDPLPFTEFVRYISTTALCNEVERMLERHERFKPEMFAELLQAANTTDDYRKCPSNCGQKIKIRRVLMNCPEIVTIGLVWDSEHSDLTEAVVRNLATHLYLPGLFYRVTDENAKNSELNLVGMICYTSQHYCAFAFHTKSSKWVFFDDANVKEIGTRWKDVVSKCIRCHFQPLLLFYANPDGTAVSTEDALRQVISWSHYKSVAENMGCEKPVIHKSDNLKENGFGDQAKQRENQKFPTDNISSSNRSHSHTGVGKGPAKLSHIDQREKIKDISRECALKAIEQKNLLSSQRKDLEKGQRKDLGRHRDLVDEDLSHFQSGSPPAPNGFKQHGNPHLYHSQGKGSYKHDRVVPQSRASAQIISSSKSQILAPGEKITGKVKSDNGTGYDTDSSQDSRDRGNSCDSSSKSRNRGWKPMRETLNVDSIFSESEKRQHSPRHKPNISNKPKSSKDPSFSNWPKENPKQKGLMTIYEDEMKQEIGSRSSLESNGKGAEKNKGLVEGKVHGDNWQMQRTESGYESSDHISNGSTNLDSPVIDGNGTVMDISGVKETVCFSDQITTSNLNKERGDCTSLQSQHHLEGFRKELRNLEAGYKSHEFHPESHLQIKNHLIKRSHVHEDNGKLFPSSSLQIPKDHNAREHIHQSDEQKLEKPNECKFSEWLNIENSERTGLPFHVDNSASGKRVNSNEPSSLWSSHLRTVGLKPETAPLIQQQNIMDQCYFENSLSTECIIRSASRSDGCQMPKLFCQNLPPPLPPKKYAITSVPQSEKSESTPDVKLTEVFKATSHLPKHSLSTASEPSLEVSTHMNDERHKETFQVRECFGNTPNCPSSSSTNDFQANSGAIDAFCQPELDSISTCPNETVSLTTYFSVDSCMTDTYRLKYHQRPKLSFPESSGFCNNSLS
As to B1, the binding entry in experiment [2] is on record as “binds”.

B2: Flag-tagged USP53 (enzyme, UniProt Q70EK8 1-1073)
chain: MAWVKFLRKPGGNLGKVYQPGSMLSLAPTKGLLNEPGQNSCFLNSAVQVLWQLDIFRRSLRVLTGHVCQGDACIFCALKTIFAQFQHSREKALPSDNIRHALAESFKDEQRFQLGLMDDAAECFENMLERIHFHIVPSRDADMCTSKSCITHQKFAMTLYEQCVCRSCGASSDPLPFTEFVRYISTTALCNEVERMLERHERFKPEMFAELLQAANTTDDYRKCPSNCGQKIKIRRVLMNCPEIVTIGLVWDSEHSDLTEAVVRNLATHLYLPGLFYRVTDENAKNSELNLVGMICYTSQHYCAFAFHTKSSKWVFFDDANVKEIGTRWKDVVSKCIRCHFQPLLLFYANPDGTAVSTEDALRQVISWSHYKSVAENMGCEKPVIHKSDNLKENGFGDQAKQRENQKFPTDNISSSNRSHSHTGVGKGPAKLSHIDQREKIKDISRECALKAIEQKNLLSSQRKDLEKGQRKDLGRHRDLVDEDLSHFQSGSPPAPNGFKQHGNPHLYHSQGKGSYKHDRVVPQSRASAQIISSSKSQILAPGEKITGKVKSDNGTGYDTDSSQDSRDRGNSCDSSSKSRNRGWKPMRETLNVDSIFSESEKRQHSPRHKPNISNKPKSSKDPSFSNWPKENPKQKGLMTIYEDEMKQEIGSRSSLESNGKGAEKNKGLVEGKVHGDNWQMQRTESGYESSDHISNGSTNLDSPVIDGNGTVMDISGVKETVCFSDQITTSNLNKERGDCTSLQSQHHLEGFRKELRNLEAGYKSHEFHPESHLQIKNHLIKRSHVHEDNGKLFPSSSLQIPKDHNAREHIHQSDEQKLEKPNECKFSEWLNIENSERTGLPFHVDNSASGKRVNSNEPSSLWSSHLRTVGLKPETAPLIQQQNIMDQCYFENSLSTECIIRSASRSDGCQMPKLFCQNLPPPLPPKKYAITSVPQSEKSESTPDVKLTEVFKATSHLPKHSLSTASEPSLEVSTHMNDERHKETFQVRECFGNTPNCPSSSSTNDFQANSGAIDAFCQPELDSISTCPNETVSLTTYFSVDSCMTDTYRLKYHQRPKLSFPESSGFCNNSLS
For the molecule B2, the binding result with Myc-tagged SR-A is given as “binds”.
